Inconclusive means that the source gave no clear call. Such entries were picked first, then a sample of the others. Where the call is inconclusive, the potency comes from a doubtful curve fit. Active and inactive are the calls of the source. The call rests on the fitted dose curve.
molecular target: Alpha-synuclein (Homo sapiens) (UniProt P37840); assay: Alpha-synuclein ThS binding assay; conditions: recombinant alpha-synuclein fibrils, ThS fluorescence displacement
Description: NIH Molecular Libraries Screening Centers Network [MLSCN] NIH Chemical Genomics Center [NCGC] MLSCN Grant: 1 X01 MH079825-01 Assay Provider: Jeffrey A. Kuret, Ohio State University NCGC Assay Overview: Lewy body disease is characterized by the appearance of lesions containing alpha-synuclein. The protein components in these lesions can be induced to form filaments under experimentally tractable times when incubated in vitro with anionic inducers such as alkyl sulfate detergents or fatty acids. […] Here we describe the in vitro fibrillization of alpha-synuclein. Alpha-synuclein was induced to form filaments by incubation overnight at 37 C in the presence of arachidonic acid. A commonly used fluorescent probe for cross#nbeta-sheet structure, Thioflavin S (ThS), was also added to the reactions. […] Small molecules capable of ThS displacement or antagonizing fibrillization result in a decrease in ThS fluorescence, allowing determination of binding affinities for molecules screened.
NCGC Assay Protocol Summary The assay was performed in 96-well round bottom opaque plates (VWR, West Chester, PA) in 100 uL final volume. Recombinant His6-alpha-synuclein was diluted to 5 uM in assembly buffer (10 mM HEPES, pH 7.4, 100 mM NaCl, 5 mM dithiothreitol) containing 50 uM arachidonic acid inducer. ThS probe was then added to a final concentration of 10 uM with test compounds assayed at nine 3-fold dilutions beginning at 10 uM final concentration. Each compound was tested at least twice in separate assays. Controls without protein or without compound were included on each plate. After shaking 2 min to promote mixing, plates were covered with self-adhesive aluminum foil and incubated overnight at 37 C. Fluorescence (ex = 440 nm; em = 485 nm) was measured after brief shaking (10 s) in a FlexStation plate reader (Molecular Devices, Sunnyvale, CA) operated at sensitivity 10, automatic PMT. […] 28(3), 251-60.

SMILES | outcome | Potency
CCOc1ccc(C(C)=O)cc1N1C(=O)C2C3C=CC(C3)C2C1=O (stereo unspecified) | inactive | 
COc1ccc2c(c1)C(=NO)c1cc(OC)ccc1-2 |  | inconclusive: 11.4 µM
O=C(C1CCCN(S(=O)(=O)c2cccc3nonc23)C1)N1CCC(Cc2ccccc2)CC1 (stereo unspecified) | inactive | 
CCOc1ccc(CNc2ccc(N3CCCC3)cc2)cc1 |  | inconclusive: 18.6 µM
Nc1ccc(O)c(-c2nc3ccccc3s2)c1 |  | inconclusive: 11.6 µM
Cc1cc(C)c2nc(N3CCCC(C(=O)NCCN4CCOCC4)C3)sc2c1 (stereo unspecified) | inactive | 
Oc1c(CN2CCOCC2)cc(COCc2ccccc2)c2cccnc12 |  | inconclusive: 18.7 µM
Cc1ccc(/C=N/c2sc3c(c2C#N)CCC3)s1 |  | inconclusive: 54.7 µM
Cn1c(=Nc2ccc(N3CCOCC3)cc2)ccc2ccccc21 | inactive | 
Cc1ccc2nc(NC(=O)C3CCCN(S(=O)(=O)c4cccc5nsnc45)C3)sc2c1 (stereo unspecified) |  | inconclusive: 23.9 µM
Cc1cc(C(=O)Nc2ccc(N3CCOCC3)cc2)c2ccccc2n1 | inactive | 
Cc1ccc2nc(NC(=O)C3CCN(S(=O)(=O)c4cccc5nsnc45)CC3)sc2c1 |  | inconclusive: 19.7 µM
Oc1ccc(O)c2c(O)cccc12 |  | inconclusive: 15.3 µM
O=C(CCCCn1c(=O)[nH]c2ccccc2c1=O)NCc1ccc2c(c1)OCO2 | inactive | 
CN1c2cccc3cccc(c23)N(C)C1(C)C |  | inconclusive: 13 µM
COc1ccc2nc(N=Nc3ccc(N(C)C)cc3)sc2c1 | inactive | 
Cc1ccc2nc(NC(=O)C3CCCN(S(=O)(=O)c4cccc5nonc45)C3)sc2c1 (stereo unspecified) |  | inconclusive: 36 µM
Nc1ccc2nc(-c3ccc(Cl)cc3)[nH]c2c1 |  | inconclusive: 17.3 µM
CN(C)c1ccc(NC(=S)c2ccccn2)cc1 |  | active: 8.88 µM
Cc1cccn2c(=O)c3cc(C(=O)NCCN4CCOCC4)c(=N)n(CCc4ccccc4)c3nc12 |  | inconclusive: 13.1 µM
CN(C)c1ccc(N/C=C/C(=O)c2ccc(F)cc2)cc1 |  | active: 6.24 µM

2 of the compounds above, with each value named:
CCOc1ccc(CNc2ccc(N3CCCC3)cc2)cc1
  Potency: inconclusive: 18.6 µM
Cc1ccc(/C=N/c2sc3c(c2C#N)CCC3)s1
  Potency: inconclusive: 54.7 µM
